This note sets out measurements from patent EP2322194A2 (Reprise Biopharmaceutics, LLC, priority 2003, dated 2005).

For this assay, the system named is over-hydrated, healthy, non-smoking male and female volunteers. The class given is in vivo, human. The conditions noted are these: 0.5 ng/kg, individual subjects. On the procedure:
Briefly, an open-label, crossover study with 8 healthy, over-hydrated, non-smoking male and female volunteers, age 18-40. The subjects were dosed initially with 0.5 ng/kg dose, then with the 1.0 ng/kg dose and finally the 2.0 ng/kg dose. Pharmacodynamic and pharmacokinetic parameters were evaluated at each dose level. A washout period of two days (48 hours) was observed between dosing. Eight subjects evaluated in this study, 5 males, and 3 females. […] Each subject remained in the clinic from one day prior to first dosing to one day after last dosing for a total of 7 days. […] At this point over-hydration was discontinued. […] Urine-specific gravity was also measured. […] This same procedure was followed for the 1.0 ng/kg and 2.0 ng/kg infusions. […] Criteria for evaluation in the study included urine output over time, urine osmolality over time, urine-specific gravity over time, and […] osmolality and sodium over time. Statistical analysis on the above criteria was performed. The statistical analysis is descriptive and all statistical hypothesis testing was done for exploratory purposes. […] The second and third estimation used 200 mOsm/kg and 400 mOsm/kg as cut off levels for 'onset' and 'end' of action, respectively. […] The overall duration of action was estimated for each dose group using the nonparametric Kaplan-Meier method. […] Furthermore, the duration of action was presented for each treatment group using the mean, SD, median, minimum and maximum values. The dose-response relationship between duration of action and dose was investigated using an appropriate linear or nonlinear model.

Like-named read-outs stand apart in the source and are kept apart here. Further values from the same series stand in other lists.

Turning to “1-desamino-8-D-arginine vasopressin [desmopressin]”, the “Urine Osmolality” value (time 20 min) came to 56 mOsm/kg; the “Urine Osmolality” value (time 40 min) is on record as 72 mOsm/kg; the “Urine Osmolality” value (time 60 min) turned out to be 86 mOsm/kg; the “Urine Osmolality” value (time 80 min) turned out to be 95 mOsm/kg; the “Urine Osmolality” value (time 100 min) stood at 108 mOsm/kg; the “Urine Osmolality” value (time 120 min) was determined as 119 mOsm/kg. For the setting “time 140 min”, the “Urine Osmolality” value is 87 mOsm/kg.
